From patent US11110070B2 (priority 2015, dated 2021) come the findings set out here.

The test system of the data set is 129S6/SvEvTac mice. Put plainly: 3-shock CFC, extinction and reinstatement paradigm. It counts as in vivo. The procedure:
A single injection of saline (0.9% NaCl) far ketamine (30 mg kg^−1) (Ketaset III, Ketamine HCl injection, Fort Dodge Animal Health, Forth Dodge, Iowa) was administered once during the course of each experiment.
A 3-shock CFC paradigm was administered as previously described (Drew et al., 2010; Denny et al., 2014). Mice were placed in the conditioning chamber and received 3 shocks 180, 240, and 300 s later (2 s, 0.75 mA) and were removed 15 s following the last shock. All sessions were scored for freezing using FreezeView2http://actimetrics.com/downloads/freezeframe/).
Extinction began 4 days after the initial 3-shock CFC procedure, or 4 days after the reinstatement procedure. Each group of mice was subjected to 2 extinction trials per day. Each extinction trial lasted 30 min, with an intertrial interval of at least 2 h. For each extinction trial, mice were placed in the same box used for CFC without receiving foot shocks. All trials were scored for freezing. The freezing presented throughout the text represents averaged freezing behavior for the first 3 min of each extinction trial.
Reinstatement took place in the same Coulbourn fear conditioning box, but with altered cues. A 1-shock CFC paradigm was administered as previously described (Drew et al., 2010; Denny et al., 2012; Denny et al., 2014), with the exception of two experiments in which the mice were administered 3 shocks.

Entries after “also recorded” stand apart in the source; their conditions may differ.

For `CNC1(c2ccccc2Cl)CCCCC1=O` (racemic) [ketamine, (RS)-2-(2-chlorophenyl)-2-(methylamino)cyclohexanone], the “distance traveled during the 3 shock presentations” value (ketamine 1 week before CFC) was “traveled comparably”. Besides, the “distance traveled during the reinstatement shock presentation” value (ketamine 1 week prior to 1-shock reinstatement) was “traveled comparably during the reinstatement shock presentation”. For the setting “ketamine 1 week prior to 3-shock reinstatement”, the “distance traveled during the 3 reinstatement shock presentations” value is recorded as “traveled comparably during each of the 3 reinstatement shock presentations”. Further, for the setting “ketamine 1 h before CFC”, the “immobility prior to the shock presentation” value is given as “increased immobility prior to the shock presentation; also recorded: increased immobility before the shock presentation”. Further, the “distance traveled during the shock presentations” value (ketamine 1 h before CFC, vs saline) is “traveled less; also recorded: travel less during the shock presentation”. Moreover, the “immobility prior to the shock presentation / freezing during CFC training” value (ketamine 24 h before CFC) is listed as “did not alter; also recorded: equal levels of freezing behavior during CFC training”.
